According to PubChem BioAssay AID2685 (National Center for Advancing Translational Sciences (NCATS), 2010):
Some of the results follow. Shown are side measurements of this screen, not its main read-out; they come without a call. Most of these compounds were active or inconclusive in the main read-out, so they are no random draw. Words in brackets tell the shape of the fitted curve; partial curves, single points and poor fits give uncertain potencies.

Assay: qHTS Assay for Lipid Storage Modulators in Drosophila S3 Cells;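 for cell number change: cells counted by Cell Tracker Red CMTPX staining in the red channel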
Conditions: BODIPY lipid droplet fluorescence, 18-24 h; for cell number change: measured here: cell count max response, cells fed with added oleic acid
Method in brief: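 Drosophila S3 cells got compounds at several concentrations plus oleic acid (400 uM solution). Laser-scanning cytometry with 488 nm excitation read lipid droplets at 500-530 nm and cells at 575-640 nm. Percent activity was relative to 20 uM Triacsin C.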

[1] = measured here: cell number channel AC50, cells fed with added oleic acid
[2] = measured here: lipid fluorescence (Fed channel) AC50, cells fed with added oleic acid

| SMILES | cell number change | AC50 [1] | AC50 [2] |
| --- | --- | --- | --- |
| O=C(CS(=O)(=O)Cc1ccccc1)Nc1ccccc1Cl | 54.4% | 29.1 µM [rising, single point] | – |
| CC1CCCN(C(=O)c2cc3c(=O)n4ccccc4nc3s2)C1 (stereo not given) | -22.9% | – | – |
| Cc1ccc(CCSc2ccc(C(C)C)cc2)cn1 | -33.1% | 13 µM [falling, partial curve, poor fit] | 13 µM [falling, partial curve, poor fit] |
| COC(=O)c1ccc(NC(=O)COc2ccc(C3C(C#N)=C(N)Oc4c3ccc3ccccc43)cc2OC)cc1 (stereo not given) | -10.9% | – | 2.91 µM [rising, partial curve] |
| N#CCCN(C(=O)COC(=O)c1ccc(S(=O)(=O)Nc2ccccc2)cc1)c1ccccc1 | 31.2% | 13 µM [rising, partial curve, poor fit] | – |
| O=C(OC1CCCCC1)c1ccc(NC(=O)C2CCCCC2)cc1 | 5.94% | – | 5.8 µM [rising, partial curve] |
| Cc1ccccc1CNC(=O)C(=O)NCCC1CCCCN1S(=O)(=O)c1cccs1 (stereo not given) | -49.5% | 23.1 µM [falling, single point] | – |
| S=C(NCCN1CCOCC1)Nc1ccccc1Cl | -12.6% | – | 5.8 µM [rising, single point] |
| Clc1c(-c2nnc3n2CCC3)sc2ccccc12 | 109% | 20.6 µM [rising, partial curve] | 16.4 µM [rising, partial curve] |
| c1ccc(CNc2nc(-c3ccccc3)nc3ccccc23)cc1 | -16.4% | – | – |
| O=C(NC1CCCCCC1)c1ccc(Cl)c(S(=O)(=O)N2CCOCC2)c1 | 13.2% | – | – |
| Cc1ccc(C(=O)N/N=C\C=C\c2ccccc2[N+](=O)[O-])cn1 | -15.5% | – | 29.1 µM [falling, single point] |
| CCOC(=O)C1=C(COC(=O)/C=C/c2ccc(Cl)cc2)NC(=O)NC1C (stereo not given) | 42.5% | 8.2 µM [rising, partial curve, poor fit] | 29.1 µM [rising, single point] |
| Cc1ccc(C(=O)Nc2nc(C(C)(C)C)cs2)s1 | 6.37% | – | 5.17 µM [rising, single point] |
| O=C(N/C(=C\c1ccc(F)cc1)C(=O)N1CCCCCC1)c1ccccc1 | – | 6.51 µM [rising, single point] | 6.51 µM [rising, single point] |
| COc1ccc(Nc2ccc([N+](=O)[O-])cc2[N+](=O)[O-])cc1 | -36% | – | 29.1 µM [falling, single point] |
| Cc1cccnc1NC(=O)c1cccc(S(=O)(=O)N2CCCc3ccccc32)c1 | -24.9% | – | 23.1 µM [falling, partial curve, poor fit] |
| CC(C)C(NC(N)=O)C(=O)NC1CCCCC1 (stereo not given) | 3.51% | – | – |
| O=C(Nc1ccc([N+](=O)[O-])cc1)c1nc[nH]c1C(=O)NC1CCCCC1 | 3.26% | – | 1.3 µM [rising, full curve] |
| O=C(NC(Cc1c[nH]c2ccccc12)C(=O)O)/C(=C\c1ccc2c(c1)OCO2)NC(=O)c1ccccc1 (stereo not given) | 3.23% | – | 0.116 µM [falling, full curve, poor fit] |

| SMILES | cell number change | AC50 [1] | AC50 [2] |
| --- | --- | --- | --- |
| N#Cc1c(-c2ccccc2Cl)noc1/C=C/Nc1ccc(C(=O)O)cc1 | -6.71% | – | – |
| CCCCC(=O)Nc1ccc(NC(=S)NC(=O)c2cccs2)cc1OC | -40.5% | 6.51 µM [falling, partial curve] | 29.1 µM [rising, partial curve, poor fit] |
| COc1cc(OC)cc(-n2nnnc2SCC(=O)NCc2ccc3c(c2)OCO3)c1 | 23.1% | 0.00517 µM [rising, full curve, poor fit] | 3.66 µM [rising, partial curve] |
| CCc1ccc(NC2=CC(=O)C(=O)c3ccccc32)cc1 | -49.8% | 14.6 µM [falling, partial curve] | 11.6 µM [falling, partial curve] |
| Cc1cccc(C(=O)NC(=S)Nc2ccc(S(=O)(=O)N(C)c3ccccc3)cc2)c1 | – | 2.91 µM [rising, partial curve] | 0.731 µM [rising, full curve, poor fit] |
| O=C(NC1CCCCC1)C(c1ccccc1)N1CCc2ccccc21 (stereo not given) | 17.5% | – | 6.51 µM [rising, single point] |
| COCCCNC(=O)c1cn(CC(C)C)c(=O)c2c1c1ccccc1n2C | – | 6.51 µM [rising, single point] | 29.1 µM [falling, single point] |
| Cc1c(N/N=C(\C#N)C(=O)c2ccccc2)c(=O)n(-c2ccccc2)n1C | -4.05% | – | – |
| C/C(=N/OC(=O)c1ccc(Br)cc1)c1ccc(C)cc1 | -16.2% | – | 0.58 µM [rising, single point] |
| CCCNS(=O)(=O)c1ccc(CCC(=O)Nc2ccc3c(c2)OCCO3)cc1 | 20.3% | – | 0.461 µM [rising, full curve, poor fit] |
| S=c1[nH]nc(CCc2ccccc2)n1-c1ccccc1 | 1.57% | – | 25.9 µM [falling, partial curve, poor fit] |
| O=C(CSc1nc2ccccc2c(=O)n1CCCN1CCOCC1)c1c[nH]c2ccccc12 | – | 6.51 µM [falling, single point] | 6.51 µM [falling, single point] |
| C=CCn1c(SCC(=O)NCC2CCCO2)nnc1-c1ccccc1 (stereo not given) | -4.2% | – | 35.5 µM [rising, single point] |
| COCCn1cnc2c1c(=O)n(Cc1ccccc1C#N)c(=O)n2Cc1ccccc1 | -20.6% | 0.13 µM [falling, full curve, poor fit] | – |
| CCc1noc(C)c1C(=O)N(CCCOC)c1c(N)n(Cc2ccccc2)c(=O)[nH]c1=O | 7.47% | – | 29.1 µM [rising, single point] |
| Cc1oc2c(c1C(=O)N1CCOCC1)C(=O)c1ccccc1C2=O | -29.7% | – | 29.1 µM [falling, single point] |
| CCC(=O)Nc1ccc2c(c1)nc(CCN1CCCCC1)n2C | 18.5% | – | 0.461 µM [rising, full curve, poor fit] |
| Cc1cccc(C(C(=O)NC2CCCC2)N(C(=O)c2csnn2)C2CCCC2)c1 (stereo not given) | -18.3% | – | 6.51 µM [falling, single point] |
| c1ccc(C(c2nnnn2Cc2ccco2)N2CCN(c3nc4ccccc4s3)CC2)cc1 (stereo not given) | -14.1% | – | 29.1 µM [falling, single point] |
| CC1(C)C(=O)OC(c2ccccc2)C2(CCCC2)C1=O (stereo not given) | -6.67% | – | 29.1 µM [rising, single point] |

| SMILES | cell number change | AC50 [1] | AC50 [2] |
| --- | --- | --- | --- |
| Cn1c(SCC(=O)NCc2ccco2)nnc1-c1c[nH]c2ccccc12 | 0.524% | – | 16.4 µM [falling, partial curve] |
| CCN(C(=O)COC(=O)CCn1c(C)csc1=O)c1c(N)n(Cc2ccccc2)c(=O)[nH]c1=O | 17% | – | 4.11 µM [falling, single point] |
| CCN(CC)c1ccc(NC(=O)c2cnccn2)cc1S(=O)(=O)Nc1ccc(OC)cc1 | – | – | 25.9 µM [rising, partial curve] |
| COc1cc(NC(=O)c2c3c(nc4ccccc24)CCC3)cc(OC)c1 | 79.9% | 14.6 µM [rising, partial curve] | – |
| CCCCn1c(N)c(N(CCC(C)C)C(=O)CCN2C(=O)C3CC=CCC3C2=O)c(=O)[nH]c1=O (stereo not given) | 2.15% | – | – |
| CN1CCC(N2CCCC(C(=O)O)C2)CC1 (stereo not given) | – | – | 29.1 µM [falling, single point] |
| CCCCSc1nnc([C@@H](NC(=O)OC(C)(C)C)C(C)C)o1 | 39.6% | 4.11 µM [rising, single point] | – |
| CC(=O)Nc1ccc(S(=O)(=O)N(C)CC(=O)OCC(=O)c2ccc3c(c2)NC(=O)CO3)cc1 | -10% | – | 29.1 µM [falling, single point] |
| Cc1ccc(S(=O)(=O)NC(=O)N2CCN(Cc3c(F)cccc3Cl)CC2)cc1 | -35.1% | 6.51 µM [falling, partial curve] | 6.51 µM [falling, partial curve] |
| CCN(Cc1ccccc1)C(=O)CCS(=O)(=O)c1cc2c(cc1Cl)NC(=O)CO2 | -19.3% | – | 0.82 µM [falling, single point] |
| CCN(CC(=O)Nc1ccccc1OC)C(=O)c1ccc(N(C)S(=O)(=O)c2ccc(C)cc2)cc1 | -38.2% | 18.4 µM [falling, partial curve] | 0.731 µM [falling, full curve] |
| O=C(Nc1ccccc1)Nc1ccccc1C(=O)NCc1ccco1 | 153% | 16.4 µM [rising, single point] | 18.4 µM [rising, partial curve] |
| S=C(NCCc1ccccc1)NCCc1ccccc1 | 17.2% | – | – |
| CCCCNC(=O)NNc1nc(Cl)cc(C)c1C#N | 2.73% | – | – |
| O=C(CSc1nc(-c2ccccc2)c(-c2ccccc2)[nH]1)Nc1ccc2c(c1)OCO2 | -40.5% | 8.2 µM [falling, partial curve] | 11.6 µM [falling, partial curve] |
| CCN(CC(=O)Nc1c(F)cccc1F)C(=O)/C=C/c1c(C)nn(-c2ccc(F)cc2)c1C | -9.18% | – | 2.59 µM [rising, partial curve, poor fit] |
| O=C(CCOc1ccccc1)Nc1cccc(S(=O)(=O)Nc2ccccc2Cl)c1 | -1.29% | – | 6.51 µM [falling, single point] |
| COC(=O)CN1C(=O)Nc2ccc(C)cc2C1c1ccccc1 (stereo not given) | 11.2% | – | 0.146 µM [rising, full curve, poor fit] |
